Experimental data published in PubChem BioAssay AID493014 (National Center for Advancing Translational Sciences (NCATS), 2011).
Some of the results follow. These are further read-outs of the screen, such as a control signal, another cell line or another target. No call is given for them. Compounds called inactive in the main read-out are mostly missing here. Potencies come from curve fits of mixed quality, noted in brackets.

Assay: qHTS Assay to Find Inhibitors of Chronic Active B-Cell Receptor Signaling
Details: ABC-DLBCL IkBa-CBG/CBR reporter, luminescence ratio (green luciferase fused to IkBa over red control in TMD8 lymphoma cells), 4 h
Outline: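 Compounds up to 46 uM were incubated four hours with TMD8 cells whose green CBG68 luciferase is fused to IkappaBalpha; red CBR luminescence normalised the signal, and concentration-effect curves were fitted to fusion, red and ratio data.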

[1] = measured here: CBR red luminescence, cell number
[2] = measured here: IkBa-CBG green luminescence

Row | SMILES | AC50 [1] | AC50 [2]
1 | COc1ccc(N2CCN(S(=O)(=O)c3ccc4c(c3)NC(=O)C(C)S4)CC2)cc1 (stereo not given) | 10 µM [falling, partial curve, poor fit] | 
2 | CCOC(=O)C1CCCN(CCC(C)c2ccccc2)C1 (stereo not given) | 6.51 µM [rising, single point] | 
3 | COc1cc(NC(=O)CN2C(=O)C(=O)N(C3CCCC3)C2=O)cc(OC)c1 | 6.51 µM [rising, partial curve, poor fit] | 
4 | COc1cc(/C=C2/SC(=S)N(CC3CCCO3)C2=O)ccc1O (stereo not given) | 10.3 µM [rising, partial curve] | 
5 | c1ccc(-c2cnc(-c3cccnc3)o2)cc1 | 2 µM [rising, full curve, poor fit] | 14.1 µM [falling, partial curve, poor fit]
6 | CCCOC(=O)c1ccc(NC(=O)c2ccccc2[N+](=O)[O-])cc1 | 2 µM [falling, partial curve, poor fit] | 
7 | Clc1cccc(-n2ncc3c(NCCCN4CCOCC4)ncnc32)c1 | 15.8 µM [falling, partial curve, poor fit] | 0.631 µM [rising, full curve, poor fit]
8 | O=C(Cc1ccccc1)NNS(=O)(=O)c1ccc(F)cc1 | 10 µM [falling, partial curve] | 
9 | CCCOc1ccc(C(=O)NC(=S)NCc2cccnc2)cc1 | 9.2 µM [falling, partial curve, poor fit] | 
10 | CCc1ccc(C2C(C#N)=C(N)SC(N)=C2C#N)s1 | 35.5 µM [falling, partial curve, poor fit] | 
11 | CCOc1ccccc1C(=O)NCc1ccc2c(c1)CCN2C(=O)c1ccccc1 | 14.1 µM [falling, single point] | 
12 | CC1CCCC(C)N1CCCNC(=O)c1cc2c(s1)-c1ccccc1OC2 (stereo not given) | 20 µM [falling, single point] | 
13 | O=C(COC(=O)c1ccccc1)NC1CCCCCC1 | 4.61 µM [rising, full curve] | 
14 | O=C(Cn1c(-c2cscn2)nc2ccccc21)Nc1ccc(Cl)cc1 | 23.1 µM [falling, single point] | 
15 | Cc1ccc(S(=O)(=O)/N=C(\CCl)N2CCOCC2)cc1 | 16.4 µM [falling, partial curve] | 
16 | O=C(Nc1ccn(Cc2ccccc2F)n1)c1ccc(COc2ccccc2Cl)cc1 | 2.91 µM [falling, partial curve, poor fit] | 
17 | CC1CCCC(C)N1C(=O)Cn1c(SCC(=O)NCc2ccc3c(c2)OCO3)nc2ccccc21 (stereo not given) | 11.2 µM [falling, single point] | 
18 | COc1ccc(C)cc1NC(=S)NNC(=O)c1ccccc1Cl | 13 µM [falling, partial curve, poor fit] | 
19 | CC(=O)Nc1cccc(-c2nc3ccccc3[nH]2)c1 | 12.6 µM [falling, partial curve, poor fit] | 
20 | CN/N=C(\Cc1nc2ccccc2[nH]1)c1ccc([N+](=O)[O-])cc1 | 8.91 µM [falling, partial curve, poor fit] | 
21 | O=c1sc2ccccc2n1CCOc1ccccc1 | 3.55 µM [rising, full curve] | 

Row | SMILES | AC50 [1] | AC50 [2]
22 | CSC1=N/C(=C\c2ccc(F)cc2)C(=O)S1 | 1.41 µM [rising, full curve] | 
23 | O=C(O)c1cccc(COc2ccc(CO)cc2Cl)c1 | 2.06 µM [falling, full curve] | 13 µM [rising, partial curve, poor fit]
24 | CCCCOc1cccc(-c2cc(C(=O)NNC(=S)NCC)c3ccccc3n2)c1 | 20.6 µM [falling, single point] | 
25 | CC(SC(=S)N1CCOCC1)C(=O)O (stereo not given) | 0.731 µM [falling, full curve, poor fit] | 
26 | O=C(Nc1ccc(Br)cn1)c1cccc(-c2cc3ccccc3oc2=O)c1 | 29.1 µM [falling, single point] | 
27 | Cc1cccc(NC(=O)CN2CCC(C(=O)c3ccc4c(c3)OCCO4)CC2)c1 | 22.4 µM [falling, partial curve, poor fit] | 
28 | O=C(Nc1nnc(-c2ccc(Cl)s2)o1)C1CC1 | 28.2 µM [falling, single point] | 35.5 µM [falling, single point]
29 | CCOC(=O)C1=C(C)OC(N)=C(C#N)C1c1cc(C)sc1C (stereo not given) | 35.5 µM [falling, single point] | 
30 | Cc1ccc(S(=O)(=O)N(C)CC(=O)N2CCN(c3ccccn3)CC2)cc1 | 3.66 µM [falling, partial curve, poor fit] | 
31 | CC/C(=N/Nc1ccc(Cl)cc1)c1cnnc(SC)n1 | 16.4 µM [rising, partial curve] | 23.1 µM [falling, partial curve, poor fit]
32 | O=C(CNC(=O)c1ccccc1)NCC1COc2ccccc2O1 (stereo not given) | 16.4 µM [rising, partial curve] | 
33 | COc1ccc2c(c1)O/C(=C\c1ccccc1C)C2=O | 6.31 µM [rising, full curve] | 
34 | C=CCN1C(=O)C(Cc2cccc(Cl)c2)SC1=Nc1ccc(C(=O)O)cc1 (stereo not given) | 8.91 µM [falling, partial curve, poor fit] | 5.62 µM [rising, partial curve, poor fit]
35 | Cc1nc(Nc2ccccc2)sc1-c1ccccc1 | 16.4 µM [falling, partial curve] | 
36 | CC(C)CN1CCC(=O)N([C@H](CO)c2ccccc2)CC1 | 0.631 µM [falling, partial curve, poor fit] | 
37 | O=C(CSc1nc2nn(-c3ccccc3)c(=O)c-2c2n1CCCCC2)Nc1cccc(F)c1 | 23.1 µM [falling, single point] | 
38 | O=C(CN1C(=O)C2CCCCC2C1=O)OCc1nnc(-c2ccccc2)o1 (stereo not given) | 3.16 µM [rising, full curve, poor fit] | 
39 | Cc1cccc(-n2c(N)cc(=O)nc2SCC(=O)Nc2nnc(CC(C)C)s2)c1 | 0.184 µM [rising, full curve, poor fit] | 
40 | O=c1cc[nH]c2c(Cl)cccc12 | 0.631 µM [falling, full curve] | 
41 | O=c1c2cc(N3CCOCC3)ccc2[nH]c(=S)n1CC1CCCO1 (stereo not given) | 0.116 µM [falling, full curve, poor fit] | 
42 | CC(Oc1ccccc1)C(=O)Nc1nc(-c2ccccn2)cs1 (stereo not given) | 7.31 µM [falling, single point] | 

Row | SMILES | AC50 [1] | AC50 [2]
43 | O=C(Cn1cc(C(=O)c2cccs2)c2ccccc21)NCc1cccs1 | 0.231 µM [rising, full curve, poor fit] | 
44 | COc1ccc(CCNc2nc(-c3ccc(O)cc3)cs2)cc1OC | 35.5 µM [falling, single point] | 
45 | COc1ccc(N(CC(=O)NCCSc2ccccc2)S(=O)(=O)c2ccccc2)cc1OC | 5.62 µM [rising, single point] | 
46 | Cc1cc(/C=C(\C#N)C(=O)N2CCCCC2)cc(C)c1O | 4.47 µM [rising, partial curve, poor fit] | 15.8 µM [falling, partial curve, poor fit]
47 | O=C(NCc1cccs1)c1ccncc1 | 7.31 µM [falling, partial curve, poor fit] | 
48 | COC(=O)c1ccc(-n2nnnc2SCC(=O)Nc2ccccc2F)cc1 | 12.6 µM [falling, partial curve] | 
49 | O=C(CSc1ccc(-c2nc3ccccc3[nH]2)cn1)N1CCN(C(=O)c2ccco2)CC1 | 35.5 µM [falling, single point] | 
50 | CCOC(=O)CSC1=C(C#N)C(c2ccccc2C)C2=C(CCCC2=O)N1 (stereo not given) | 18.4 µM [falling, single point] | 
51 | Clc1ccc(Nc2nc3ccccc3n3nnnc23)cc1 | 11.6 µM [falling, partial curve, poor fit] | 
52 | Cc1ccc2oc(C(Cl)(Cl)Cl)cc(=O)c2c1 |  | 25.1 µM [falling, single point]
53 | CN1CCN(Cc2nc3ccccc3c(=O)n2Cc2nc(-c3ccc4ccccc4c3)cs2)CC1 | 29.1 µM [falling, single point] | 
54 | CCCCCOC(=O)CSc1nnc(-c2ccccc2)c(=O)[nH]1 | 4.47 µM [rising, partial curve, poor fit] | 
55 | COC(=O)c1cc2c(N)c(C(=O)c3ccc(Cl)cc3)sc2nc1C(OC)OC |  | 0.708 µM [rising, full curve, poor fit]
56 | C/C(=N\NC(=O)COc1ccccc1-c1ccccc1)c1ccccn1 | 10 µM [rising, partial curve] | 22.4 µM [falling, partial curve]
57 | O=C(CSc1nnc(CNC(=O)c2ccccc2F)o1)Nc1ccc2c(c1)OCCO2 | 25.9 µM [rising, partial curve, poor fit] | 
58 | CCCOC(=O)c1[nH]c2c(c1C)C(=O)CC(c1cc(OC)c(OC)c(OC)c1)C2 (stereo not given) | 16.4 µM [falling, partial curve] | 
59 | O=C(NNC(=O)c1cccs1)c1ccncc1 | 25.1 µM [falling, single point] | 
60 | O=C(NNC(=O)c1cc2ccccc2cc1O)c1cccs1 | 0.355 µM [falling, full curve] | 
61 | COc1cc(/C=N/Nc2nncn2N)ccc1OCc1c(C)no[n+]1[O-] | 35.5 µM [falling, single point] | 
62 | CC(=O)Nc1ccc(NC(=O)C2CCCN2S(=O)(=O)c2cccc3nsnc23)cc1 (stereo not given) | 35.5 µM [rising, single point] | 

An excerpt of these results, as a markdown table:

| Row | SMILES | AC50 [1] | AC50 [2] |
| --- | --- | --- | --- |
| 54 | CCCCCOC(=O)CSc1nnc(-c2ccccc2)c(=O)[nH]1 | 4.47 µM [rising, partial curve, poor fit] |  |
| 58 | CCCOC(=O)c1[nH]c2c(c1C)C(=O)CC(c1cc(OC)c(OC)c(OC)c1)C2 (stereo not given) | 16.4 µM [falling, partial curve] |  |
| 59 | O=C(NNC(=O)c1cccs1)c1ccncc1 | 25.1 µM [falling, single point] |  |
